In PMC7692634, “Structural Basis of Inhibition of the Pioneer Transcription Factor NF-Y by Suramin” (Cells, 2020):
These are yes or no findings as the source states them, for the method shown. Some results given as binding are weak or reduced against the parent protein; the word gives no strength.

Sequences of proteins named here, by UniProt entry; tags and fusion partners are left off. Residues count along the entry.
NF-YA C-terminal portion (YA3; aa 239-347) (P23511, residues 239-347): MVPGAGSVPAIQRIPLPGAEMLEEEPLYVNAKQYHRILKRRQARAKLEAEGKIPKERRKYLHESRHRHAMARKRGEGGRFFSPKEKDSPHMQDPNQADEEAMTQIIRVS
NF-YA minimal functional domain (aa 262-332) of the NF-Y trimer NF-Yt (P23511, residues 262-332): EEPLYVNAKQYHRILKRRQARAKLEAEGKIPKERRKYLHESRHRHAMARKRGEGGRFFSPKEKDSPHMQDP

T1: NF-Y HFD dimer (NF-YB/NF-YC minimal functional domains) (human) (UniProt P25208+Q13952)
T1 sequence 1: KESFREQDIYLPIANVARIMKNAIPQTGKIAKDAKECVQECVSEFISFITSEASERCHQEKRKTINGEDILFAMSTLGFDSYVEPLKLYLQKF
T1 sequence 2: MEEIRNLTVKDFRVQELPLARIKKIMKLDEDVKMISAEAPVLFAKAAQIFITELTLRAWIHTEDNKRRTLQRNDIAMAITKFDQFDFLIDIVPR

T2: NF-YB minimal functional domain (aa 49-141) (human) (UniProt P25208)
T2 sequence: T1 sequence 1

B1: NF-YC minimal functional domain (aa 27-120) (domain or fragment, UniProt Q13952 27-120)
chain: T1 sequence 2

Columns and labels:
[1] = target: T1, NF-Y HFD dimer (NF-YB/NF-YC minimal functional domains) (human); assay: native gel or EMSA; equimolar purified NF-YA mixed with NF-Yd, 40 nM protein, 20 nM Cy5-labelled 31-bp HSP70 CCAAT probe, 20 mM Tris-Cl pH 7.5, 50 mM NaCl, 5 mM MgCl2, 30 °C for 30 min; 6% non-denaturing gel; the trimer is seen as its complex with DNA; both purified
[2] = target: T2, NF-YB minimal functional domain (aa 49-141) (human); assay: crystal structure; NF-Yd incubated overnight at 4 °C with a tenfold molar excess of suramin; sitting drop, 20 °C, 200 mM ammonium citrate tribasic, 20% PEG 3350; 2.7 Å, P212121, two NF-Yd and one suramin per asymmetric unit; both purified
[3] = target: NF-YA minimal functional domain (aa 262-332) of the NF-Y trimer NF-Yt (UniProt P23511); assay: co-purification (nickel affinity by the 6His-tag on NF-YA, then size exclusion); three subunits co-expressed in E. coli; lysate in 10 mM Tris-HCl pH 8, 400 mM NaCl, 2 mM MgCl2, 2 mM imidazole loaded on a His-Select nickel column; Superdex 75 in 10 mM Tris-HCl pH 8, 400 mM NaCl, 2 mM DTT

Molecule	binding [1]	binding [2]	binding [3]
NF-YA C-terminal portion (YA3; aa 239-347) (from UniProt P23511 239-347) (domain or fragment)	binds		
B1		binds	binds
